Binding data for one substance are collected here from article PMC4376871.

Positions count from the first letter of the chain named. No constants are given. Whether binding was seen depends on the method and setting. For some assays here: Binding calls can cover weak binding; strength is not graded here. Tags and fused reporters may be left off the sequences shown.

Test [1] deals with T1, Arabidopsis SHAGGY-like protein kinase AtSK23 fused to the GAL4 DNA binding domain (Arabidopsis thaliana (ecotype Sei-0 cDNA)) (UniProt Q39010).
T1 sequence: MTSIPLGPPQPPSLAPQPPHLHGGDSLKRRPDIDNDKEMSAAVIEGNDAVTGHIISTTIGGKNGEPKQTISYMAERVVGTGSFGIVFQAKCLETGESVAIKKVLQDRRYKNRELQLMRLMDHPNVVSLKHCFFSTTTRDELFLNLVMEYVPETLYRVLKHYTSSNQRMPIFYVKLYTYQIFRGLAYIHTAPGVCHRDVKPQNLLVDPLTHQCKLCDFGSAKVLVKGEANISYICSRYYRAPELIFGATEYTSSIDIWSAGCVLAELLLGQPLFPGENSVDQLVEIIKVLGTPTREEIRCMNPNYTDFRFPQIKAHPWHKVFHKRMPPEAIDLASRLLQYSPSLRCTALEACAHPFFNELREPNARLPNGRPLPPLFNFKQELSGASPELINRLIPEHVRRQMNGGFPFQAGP
Briefly: two-hybrid; yeast Y187; C4 or C4 mutants on AD, AtSKs on DBD; quantitative ß-galactosidase activity (Galacto-Star, chemiluminescence) relative to the C4/AtSK23 interaction.

Test [2] addresses T2, Kinase-dead AtSK23K101R fused to the GAL4 DNA binding domain (Arabidopsis thaliana (ecotype Sei-0 cDNA)) (UniProt Q39010).
T2 sequence: T1 sequence with K101R
The description is as above.

For the substance “Beet curly top virus (BCTV-B[US:Logan:76]) C4 protein fused to the GAL4 activation domain”, the figures for the binding result in test [1] and in test [2] were “binds” and “no binding”, respectively.
